In paper PMC7356634 one finds binding data, which are given here for three molecules.

Results are given in words; binding and its absence hold for the method and conditions named. In cells and extracts the contact can be indirect. Some results given as binding are weak or reduced against the parent protein; the word gives no strength. Where a sequence is shown, tags or fusion partners need not be part of it.

Assay [1] concerns the target T1, UL35-HA (C-terminally HA-tagged UL35, wildtype) (human cytomegalovirus (HCMV)) (UniProt F5HE12).
T1 sequence: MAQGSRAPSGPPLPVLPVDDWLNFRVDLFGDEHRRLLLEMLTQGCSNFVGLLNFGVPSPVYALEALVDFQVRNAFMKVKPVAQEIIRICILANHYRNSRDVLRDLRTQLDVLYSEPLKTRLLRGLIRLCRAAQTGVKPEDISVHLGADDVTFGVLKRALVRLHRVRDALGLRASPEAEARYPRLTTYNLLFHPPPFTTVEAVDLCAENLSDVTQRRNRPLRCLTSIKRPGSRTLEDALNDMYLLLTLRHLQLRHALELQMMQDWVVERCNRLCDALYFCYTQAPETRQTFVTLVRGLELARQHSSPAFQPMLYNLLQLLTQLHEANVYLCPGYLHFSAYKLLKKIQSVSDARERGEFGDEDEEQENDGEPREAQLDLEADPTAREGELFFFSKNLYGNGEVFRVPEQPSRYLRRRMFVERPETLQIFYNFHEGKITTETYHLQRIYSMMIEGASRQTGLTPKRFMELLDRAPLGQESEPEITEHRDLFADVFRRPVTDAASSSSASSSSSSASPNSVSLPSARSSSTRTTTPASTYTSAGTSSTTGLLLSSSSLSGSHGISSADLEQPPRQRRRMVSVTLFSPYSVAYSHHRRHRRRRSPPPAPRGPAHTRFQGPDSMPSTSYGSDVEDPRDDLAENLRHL
Put plainly: co-IP.

Assay [2] concerns the target T2, myc-tagged UL35 (HCMV tegument protein ppUL35) (human cytomegalovirus (HCMV)) (UniProt F5HE12).
T2 sequence: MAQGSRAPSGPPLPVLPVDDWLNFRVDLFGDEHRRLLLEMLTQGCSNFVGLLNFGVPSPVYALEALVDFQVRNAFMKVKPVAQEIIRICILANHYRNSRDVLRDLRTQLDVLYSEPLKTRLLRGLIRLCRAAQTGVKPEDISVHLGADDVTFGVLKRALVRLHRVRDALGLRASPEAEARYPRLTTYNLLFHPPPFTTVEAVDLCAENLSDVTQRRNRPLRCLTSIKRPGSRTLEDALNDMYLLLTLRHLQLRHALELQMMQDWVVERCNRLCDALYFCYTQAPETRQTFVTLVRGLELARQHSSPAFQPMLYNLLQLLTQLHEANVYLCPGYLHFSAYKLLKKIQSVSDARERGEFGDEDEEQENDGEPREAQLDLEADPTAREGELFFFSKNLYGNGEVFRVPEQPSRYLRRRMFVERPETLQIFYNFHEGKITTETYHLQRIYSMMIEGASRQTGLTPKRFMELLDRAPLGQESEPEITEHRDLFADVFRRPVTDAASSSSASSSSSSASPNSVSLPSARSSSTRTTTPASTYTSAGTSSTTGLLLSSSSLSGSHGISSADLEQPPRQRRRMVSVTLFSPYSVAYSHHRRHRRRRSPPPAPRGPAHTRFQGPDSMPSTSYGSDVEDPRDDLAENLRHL
Put plainly: co-IP; HEK293T transfected with one myc-tagged protein; IP with anti-myc antibody and protein A agarose in IP lysis buffer (20 mM Tris-HCl pH 7.5, 150 mM NaCl, 1% IGEPAL CA-630, 0.25% sodium deoxycholate, 0.1% SDS), 7 washes; blot for endogenous OGT.

B1: TANK-binding kinase 1 (TBK1), pcDNA3-FLAG-TBK1 (enzyme, UniProt Q9UHD2 1-729)
chain: MQSTSNHLWLLSDILGQGATANVFRGRHKKTGDLFAIKVFNNISFLRPVDVQMREFEVLKKLNHKNIVKLFAIEEETTTRHKVLIMEFCPCGSLYTVLEEPSNAYGLPESEFLIVLRDVVGGMNHLRENGIVHRDIKPGNIMRVIGEDGQSVYKLTDFGAARELEDDEQFVSLYGTEEYLHPDMYERAVLRKDHQKKYGATVDLWSIGVTFYHAATGSLPFRPFEGPRRNKEVMYKIITGKPSGAISGVQKAENGPIDWSGDMPVSCSLSRGLQVLLTPVLANILEADQEKCWGFDQFFAETSDILHRMVIHVFSLQQMTAHKIYIHSYNTATIFHELVYKQTKIISSNQELIYEGRRLVLEPGRLAQHFPKTTEENPIFVVSREPLNTIGLIYEKISLPKVHPRYDLDGDASMAKAITGVVCYACRIASTLLLYQELMRKGIRWLIELIKDDYNETVHKKTEVVITLDFCIRNIEKTVKVYEKLMKINLEAAELGEISDIHTKLLRLSSSQGTIETSLQDIDSRLSPGGSLADAWAHQEGTHPKDRNVEKLQVLLNCMTEIYYQFKKDKAERRLAYNEEQIHKFDKQKLYYHATKAMTHFTDECVKKYEAFLNKSEEWIRKMLHLRKQLLSLTNQCFDIEEEVSKYQEYTNELQETLPQKMFTASSGIKHTMTPIYPSSNTLVEMTLGMKKLKEEMEGVVKELAENNHILERFGSLTMDGGLRNVDCL
Regarding B1, the binding entry in assay [1] is “binds”.

B2: O-linked N-acetylglucosamine (GlcNAc) transferase (OGT), endogenous (enzyme, UniProt O15294 1-1046)
chain: MASSVGNVADSTEPTKRMLSFQGLAELAHREYQAGDFEAAERHCMQLWRQEPDNTGVLLLLSSIHFQCRRLDRSAHFSTLAIKQNPLLAEAYSNLGNVYKERGQLQEAIEHYRHALRLKPDFIDGYINLAAALVAAGDMEGAVQAYVSALQYNPDLYCVRSDLGNLLKALGRLEEAKACYLKAIETQPNFAVAWSNLGCVFNAQGEIWLAIHHFEKAVTLDPNFLDAYINLGNVLKEARIFDRAVAAYLRALSLSPNHAVVHGNLACVYYEQGLIDLAIDTYRRAIELQPHFPDAYCNLANALKEKGSVAEAEDCYNTALRLCPTHADSLNNLANIKREQGNIEEAVRLYRKALEVFPEFAAAHSNLASVLQQQGKLQEALMHYKEAIRISPTFADAYSNMGNTLKEMQDVQGALQCYTRAIQINPAFADAHSNLASIHKDSGNIPEAIASYRTALKLKPDFPDAYCNLAHCLQIVCDWTDYDERMKKLVSIVADQLEKNRLPSVHPHHSMLYPLSHGFRKAIAERHGNLCLDKINVLHKPPYEHPKDLKLSDGRLRVGYVSSDFGNHPTSHLMQSIPGMHNPDKFEVFCYALSPDDGTNFRVKVMAEANHFIDLSQIPCNGKAADRIHQDGIHILVNMNGYTKGARNELFALRPAPIQAMWLGYPGTSGALFMDYIITDQETSPAEVAEQYSEKLAYMPHTFFIGDHANMFPHLKKKAVIDFKSNGHIYDNRIVLNGIDLKAFLDSLPDVKIVKMKCPDGGDNADSSNTALNMPVIPMNTIAEAVIEMINRGQIQITINGFSISNGLATTQINNKAATGEEVPRTIIVTTRSQYGLPEDAIVYCNFNQLYKIDPSTLQMWANILKRVPNSVLWLLRFPAVGEPNIQQYAQNMGLPQNRIIFSPVAPKEEHVRRGQLADVCLDTPLCNGHTTGMDVLWAGTPMVTMPGETLASRVAASQLTCLGCLELIAKNRQEYEDIAVKLGTDLEYLKKVRGKVWKQRISSPLFNTKQYTMELERLYLQMWEHYAAGNKPDHMIKPVEVTESA
Regarding B2, the binding result in assay [2] is given as “binds”.

B3: untagged OGT (pcDNA3.1+ OGT) (enzyme, UniProt O15294 1-1046)
chain: MASSVGNVADSTEPTKRMLSFQGLAELAHREYQAGDFEAAERHCMQLWRQEPDNTGVLLLLSSIHFQCRRLDRSAHFSTLAIKQNPLLAEAYSNLGNVYKERGQLQEAIEHYRHALRLKPDFIDGYINLAAALVAAGDMEGAVQAYVSALQYNPDLYCVRSDLGNLLKALGRLEEAKACYLKAIETQPNFAVAWSNLGCVFNAQGEIWLAIHHFEKAVTLDPNFLDAYINLGNVLKEARIFDRAVAAYLRALSLSPNHAVVHGNLACVYYEQGLIDLAIDTYRRAIELQPHFPDAYCNLANALKEKGSVAEAEDCYNTALRLCPTHADSLNNLANIKREQGNIEEAVRLYRKALEVFPEFAAAHSNLASVLQQQGKLQEALMHYKEAIRISPTFADAYSNMGNTLKEMQDVQGALQCYTRAIQINPAFADAHSNLASIHKDSGNIPEAIASYRTALKLKPDFPDAYCNLAHCLQIVCDWTDYDERMKKLVSIVADQLEKNRLPSVHPHHSMLYPLSHGFRKAIAERHGNLCLDKINVLHKPPYEHPKDLKLSDGRLRVGYVSSDFGNHPTSHLMQSIPGMHNPDKFEVFCYALSPDDGTNFRVKVMAEANHFIDLSQIPCNGKAADRIHQDGIHILVNMNGYTKGARNELFALRPAPIQAMWLGYPGTSGALFMDYIITDQETSPAEVAEQYSEKLAYMPHTFFIGDHANMFPHLKKKAVIDFKSNGHIYDNRIVLNGIDLKAFLDSLPDVKIVKMKCPDGGDNADSSNTALNMPVIPMNTIAEAVIEMINRGQIQITINGFSISNGLATTQINNKAATGEEVPRTIIVTTRSQYGLPEDAIVYCNFNQLYKIDPSTLQMWANILKRVPNSVLWLLRFPAVGEPNIQQYAQNMGLPQNRIIFSPVAPKEEHVRRGQLADVCLDTPLCNGHTTGMDVLWAGTPMVTMPGETLASRVAASQLTCLGCLELIAKNRQEYEDIAVKLGTDLEYLKKVRGKVWKQRISSPLFNTKQYTMELERLYLQMWEHYAAGNKPDHMIKPVEVTESA
On to B3, for which, in assay [1], the binding entry is on record as “binds”.
